# Earlier results in patent publication US7592326B2, “Method for stimulating the immune, inflammatory or neuroprotective response” (priority 2004, dated 2009).
# At least one structure is not confirmed: it was looked up by name or label, or the drawing left a doubt.
# Assays:
# human basophils [1] = conditions: cited from earlier work
# human basophils [2] = conditions: cited from earlier work; remark: listed apart in the source
compound,measurement,setting,value
C=CC[C@@H]1/C=C(\C)C[C@H](C)C[C@H](OC)[C@H]2O[C@@](O)(C(=O)C(=O)N3CCCC[C@H]3C(=O)O[C@H](/C(C)=C/[C@@H]3CC[C@@H](O)[C@H](OC)C3)[C@H](C)[C@@H](O)CC1=O)[C@H](C)C[C@@H]2OC [FK506],concentration range inhibiting IL-4 (and IL-13),human basophils [1]; IgE-mediated,picomolar range
same,"IgE-mediated release of histamine, IL-4 and IL-13",human basophils [1]; other drugs,potently inhibited
same,inhibition of IL-13 induced by IL-3 by other drugs,human basophils [2],neither of these drugs inhibit
